These are yes or no findings as the source states them, for the method shown. For some of these results: In cells and extracts the contact can be indirect. Some results given as binding are weak or reduced against the parent protein; the word gives no strength. For some of these results: Tags and fused reporters may be left off the sequences shown.
Assays:
[1] = target: T1, human 6His2Flag-Cdc45 (human) (UniProt O75419); assay: co-purification of co-expressed subunits (glutathione beads, Q-Sepharose, anti-Flag beads, glycerol gradient); 11 human CMG subunits co-expressed in High Five cells; captured by GST-Sld5 on glutathione beads (0.42 M potassium acetate), Q-Sepharose, then by 6His2Flag-Cdc45 on anti-Flag M2 beads, PreScission cleavage, 15-40% glycerol gradient; subunits checked by silver staining and immunoblotting
T1 sequence: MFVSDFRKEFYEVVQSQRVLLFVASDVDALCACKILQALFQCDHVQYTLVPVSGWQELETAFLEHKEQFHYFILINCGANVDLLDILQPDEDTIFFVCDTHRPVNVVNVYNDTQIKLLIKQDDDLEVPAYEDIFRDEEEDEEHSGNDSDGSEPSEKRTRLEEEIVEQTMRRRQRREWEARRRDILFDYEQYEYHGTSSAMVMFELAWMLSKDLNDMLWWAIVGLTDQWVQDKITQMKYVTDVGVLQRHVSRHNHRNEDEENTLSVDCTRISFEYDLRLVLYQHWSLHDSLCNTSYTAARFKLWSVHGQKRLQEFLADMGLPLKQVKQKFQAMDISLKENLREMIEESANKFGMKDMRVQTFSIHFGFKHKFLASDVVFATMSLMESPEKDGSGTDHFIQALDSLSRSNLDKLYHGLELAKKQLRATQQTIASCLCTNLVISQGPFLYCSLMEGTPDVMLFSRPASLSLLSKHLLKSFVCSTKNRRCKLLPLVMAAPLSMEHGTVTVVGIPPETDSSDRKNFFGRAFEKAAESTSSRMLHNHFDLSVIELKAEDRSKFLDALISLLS

By UniProt entry, the sequences of proteins in these tests, tags left out.
UniProt Q9BRT9: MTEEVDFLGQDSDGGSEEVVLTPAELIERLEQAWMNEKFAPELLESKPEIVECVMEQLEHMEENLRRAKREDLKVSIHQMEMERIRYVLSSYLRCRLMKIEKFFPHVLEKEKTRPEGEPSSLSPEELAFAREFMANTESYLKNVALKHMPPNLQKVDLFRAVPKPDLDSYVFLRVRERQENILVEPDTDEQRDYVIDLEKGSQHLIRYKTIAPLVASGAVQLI
UniProt P49736: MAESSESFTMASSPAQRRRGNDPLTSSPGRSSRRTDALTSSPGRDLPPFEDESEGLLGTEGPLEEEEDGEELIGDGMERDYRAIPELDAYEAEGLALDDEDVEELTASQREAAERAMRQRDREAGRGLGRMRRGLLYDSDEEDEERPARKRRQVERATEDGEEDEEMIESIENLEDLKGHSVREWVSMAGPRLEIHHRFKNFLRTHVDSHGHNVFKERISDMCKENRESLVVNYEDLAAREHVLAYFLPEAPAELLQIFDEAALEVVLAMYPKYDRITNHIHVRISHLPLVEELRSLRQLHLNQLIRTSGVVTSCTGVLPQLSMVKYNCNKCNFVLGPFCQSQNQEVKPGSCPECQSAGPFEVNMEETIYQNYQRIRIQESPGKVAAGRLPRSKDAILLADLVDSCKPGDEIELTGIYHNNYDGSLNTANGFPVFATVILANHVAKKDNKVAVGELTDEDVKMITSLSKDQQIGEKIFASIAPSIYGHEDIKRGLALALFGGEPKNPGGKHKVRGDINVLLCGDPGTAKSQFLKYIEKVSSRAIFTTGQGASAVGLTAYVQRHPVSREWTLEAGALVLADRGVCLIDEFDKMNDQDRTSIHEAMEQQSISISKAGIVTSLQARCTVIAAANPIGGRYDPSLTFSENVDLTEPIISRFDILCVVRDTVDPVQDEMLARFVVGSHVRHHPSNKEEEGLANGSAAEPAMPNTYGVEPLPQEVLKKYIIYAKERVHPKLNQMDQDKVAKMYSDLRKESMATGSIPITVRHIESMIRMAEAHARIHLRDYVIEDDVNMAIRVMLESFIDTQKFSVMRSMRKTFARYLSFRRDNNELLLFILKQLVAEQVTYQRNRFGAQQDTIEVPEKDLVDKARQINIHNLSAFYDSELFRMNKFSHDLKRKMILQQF

human GST-Sld5 (human) = human GST-Sld5 (human) (UniProt Q9BRT9); assay: as above
[2] = target: T2, Psf1 (endogenous) (human (endogenous in HaCaT and HEK-293T)) (UniProt Q14691); assay: condition: only with 15 µM CA1 on the immunoprecipitated complexes for 30 min; co-IP; as a2, but the beads with the immunoprecipitated complexes were incubated with 15 µM coumermycin-A1 (CA1) for 30 min, washed, immunoblotted
T2 sequence: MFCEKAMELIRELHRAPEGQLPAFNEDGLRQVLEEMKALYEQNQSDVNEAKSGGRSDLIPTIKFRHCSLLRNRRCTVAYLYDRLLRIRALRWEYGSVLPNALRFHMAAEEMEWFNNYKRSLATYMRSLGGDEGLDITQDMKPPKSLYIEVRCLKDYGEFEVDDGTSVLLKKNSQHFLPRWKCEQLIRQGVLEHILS

[3] = target: T2, Psf1 (endogenous) (human (endogenous in HaCaT and HEK-293T)); assay: co-IP; nuclear extract of synchronized HaCaT cells (20 hrs after release, S-phase), 200 mM potassium acetate, 0.01% Triton X-100, 4°C; IP with anti-Psf1 or anti-Mcm2 (IgG control), protein A/G agarose; beads incubated with DMSO for 30 min, washed, immunoblotted

Row | Substance | binding [1] | binding (human GST-Sld5 (human)) | binding [2] | binding [3]
1 | human Mcm2 (recombinant hCMG subunit) (from UniProt P49736 1-904) | binds | binds |  | 
2 | Mcm2 (endogenous) (from UniProt P49736 1-904) |  |  | no binding | binds

From publication PMC10441460, “Identification of Selective ATP-Competitive CMG Helicase Inhibitors for Cancer Intervention that Disrupt CMG-Replisome Function” (Research Square, 2023)
